In PubChem BioAssay AID624297 (National Center for Advancing Translational Sciences (NCATS), 2012):
In all, about 340,000 compounds went through this assay and about 6,200 (1.8%) were called active. Inconclusive results, whose numbers are uncertain, are shown with a selection of clear calls. Calls follow the shape of the dose curve; as a rule, active = well fitted activation curve with a large enough effect; inconclusive = small, poorly fitted or top-dose-only effect; inactive = no such curve, though single readings can be large or run the other way. Potencies of inconclusive entries are doubtful fits and often do not repeat.

Test: A quantitative high throughput screen for small molecules that induce DNA re-replication in SW480 colon adenocarcinoma cells. Also: nearly all actives have a fitted effect of over 55% in size.
Details: Hoechst DNA content imaging, 48 h; series mostly up to 46.1 µM
In short: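 Readout is total intensity of Hoechst-stained nuclei, excited at 405 nm and collected at 500-530 nm. Compound treatment lasted 48 hr at 37 C in 5% CO2 before staining.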
Potency is read from the fitted curve at half-maximal effect.

SMILES	Potency
Cc1ccc2nc(/N=C(\N)NC(=O)NC3CCCCC3)nc(C)c2c1	inconclusive: 29.1 µM [activator, single point]
Cc1cc2nc(-c3ccc(SCc4ccc(C(=O)O)cc4)nc3)[nH]c2cc1C	inconclusive: 16.4 µM [activator, single point]
Cc1ccc2cccc(Oc3ncnc4sc(C)c(C)c34)c2n1	inconclusive: 29.1 µM [activator, single point]
CC1CN(C(=S)SCC(=O)c2ccc(Cl)cc2)CC(C)O1 (stereo unspecified)	inactive
O=S(=O)(Cc1ccc(Cl)cc1Cl)c1ccc(Cl)cc1	active: 1.3 µM
CCN1CCN(c2nc(SC)nc3sc4c(c23)CC(C)(C)OC4)CC1	inactive
Cc1cccc(-c2cccc(NC(=O)C3CCCN(Cc4cccnc4)C3)c2)c1 (stereo unspecified)	inconclusive: 29.1 µM [activator, partial curve, poor fit]
C/C(=C\C(=O)C(F)(F)F)Nc1cc(C)cc(C)c1	inactive
O=C(CCc1ccccc1)NC(c1cccs1)c1cc(Cl)c2cccnc2c1O (stereo unspecified)	inconclusive: 1.3 µM [activator, full curve, poor fit]
Cn1ccnc1C(=O)c1cc(SCC(=O)NCc2ccccc2)nc2ccccc12	inconclusive: 29.1 µM [activator, single point]
O=[N+]([O-])c1ccc(/C=N/n2cnc3ccccc32)s1	active: 4.11 µM
Cn1c(=O)c2c(nc(NCc3ccc4c(c3)OCO4)n2Cc2ccc(F)cc2)n(C)c1=O	inconclusive: 20.6 µM [activator, single point]
Cc1ccc(C(=O)N2CCOCC2)cc1S(=O)(=O)N1CCCCC1	inactive
COc1ccc(-n2cnc3sc4c(c3c2=O)CCCC4)cc1	inconclusive: 29.1 µM [activator, partial curve, poor fit]
O=C(CNC(=O)C(c1ccccc1)c1ccccc1)N/N=C\c1cccc(O)c1	inactive
CCN1CCN(Cc2cccc(Oc3ccc(Cl)cc3)c2)CC1	active: 16.4 µM
C=CC[C@H]1Cc2c(cccc2[N+](=O)[O-])[C@H](CC=C)N1	inconclusive: 6.51 µM [activator, single point]
CN(C)c1ccc(/C=N/N2C(=S)SC(C)(C)C2N(O)C(=O)Nc2ccc([N+](=O)[O-])cc2)cc1 (stereo unspecified)	inconclusive: 25.9 µM [activator, partial curve, poor fit]
Nc1nccc(/C=C/c2c(F)cccc2Cl)n1	inconclusive: 18.4 µM [activator, single point]
COc1ccccc1N(CC(=O)NCc1ccc(F)cc1)C(=O)CCC(=O)Nc1ccccn1	inactive
NNc1ccc(S(=O)(=O)N2CCCCC2)cn1	inconclusive: 29.1 µM [activator, single point]
CCOC(=O)Cc1c(C)nc2c(-c3cccc(Br)c3)c[nH]n2c1=O	active: 18.4 µM
Cc1cccc(Cn2cnc3c(sc4nc(C)cc(C)c43)c2=O)c1	inconclusive: 11.6 µM [activator, partial curve, poor fit]

2 compounds drawn at random from the list so far, as already listed:
SMILES	Potency
CN(C)c1ccc(/C=N/N2C(=S)SC(C)(C)C2N(O)C(=O)Nc2ccc([N+](=O)[O-])cc2)cc1 (stereo unspecified)	inconclusive: 25.9 µM [activator, partial curve, poor fit]
CCOC(=O)Cc1c(C)nc2c(-c3cccc(Br)c3)c[nH]n2c1=O	active: 18.4 µM

The list continues:

SMILES	Potency
C/C(=N\Nc1ccccc1C(=O)O)c1ccncc1	inconclusive: 20.6 µM [activator, single point]
N/C(=N\OC(=O)C1CCCCC1)c1ccc(Cl)cc1	inconclusive: 2.59 µM [activator, single point]
CC1CC(C)CN(C(=O)c2cc(-c3ccccn3)nc3ccccc23)C1 (stereo unspecified)	inactive
C#CCSc1nnc(-c2ccc(C)cc2)o1	inconclusive: 28.2 µM [activator, single point]
CCOC(=O)c1sc2c(c1C)C(c1cccs1)C1=C(CCCC1=O)N2 (stereo unspecified)	inconclusive: 3.26 µM [activator, full curve]
CC(=O)c1ccc(NC(=O)C[n+]2ccccc2)cc1	inconclusive: 6.51 µM [activator, single point]
O=C(/C=N/O)NCCCN1CCOCC1	inconclusive: 18.4 µM [activator, single point]
CCOC(=O)c1c(C)[nH]c(C)c1S(=O)(=O)NC(CC)CN1CCOCC1 (stereo unspecified)	inconclusive: 6.51 µM [activator, single point]
CCc1ccc(NC(=O)C(CC)Sc2nc3cc4c(cc3c(=O)n2Cc2ccco2)OCO4)cc1 (stereo unspecified)	inconclusive: 20.6 µM [activator, single point]
CC(OC(=O)Cc1n[nH]c(=O)c2ccccc12)C(=O)Nc1ccc(Cl)cn1 (stereo unspecified)	inconclusive: 29.1 µM [activator, single point]
COc1ccc(/C=C2/CSC/C(=C/c3ccc(OC)c(OC)c3)C2=O)cc1OC	active: 2.91 µM
CCN(CC)CCNC(=O)c1ccc(NC(=O)c2ccccc2-c2ccc(C(F)(F)F)cc2)cc1	inconclusive: 29.1 µM [activator, single point]
CCOC(=O)c1c(C)[nH]c(C(=O)OC(C)C(=O)NCc2ccccc2)c1C (stereo unspecified)	inactive
Cc1cc(C)c(NC(=O)c2ccc[n+](Cc3ccc([N+](=O)[O-])cc3)c2)c(C)c1	inactive
O=C(COC(=O)Cc1ccsc1)Nc1cccc(F)c1	inconclusive: 29.1 µM [activator, single point]
Cc1ccc(/C=C/C(=O)Nc2ncc(C)s2)o1	inconclusive: 32.6 µM [activator, partial curve, poor fit]
COc1ccc(NC(=O)C2CCCN(c3nccc(C)n3)C2)cc1 (stereo unspecified)	inactive
O=C(C1=C(O)C(=O)N(CCc2ccccc2)C1c1ccncc1)c1cc2ccccc2o1 (stereo unspecified)	inconclusive: 6.51 µM [activator, single point]
CCN(CC(=O)Nc1cc(Cl)ccc1C)C(=O)CC1CCCC1	inactive
COc1ccc(NC(=S)N(CCc2c(C)[nH]c3ccc(C)cc23)Cc2cccs2)cc1	inactive
CN1CCN(C2=C(Cl)C(=O)N(c3ccc(Cl)c(Cl)c3)C2=O)CC1	inconclusive: 29.1 µM [activator, single point]
N=c1ccn(Cc2ccc(Cl)cc2)cc1	inactive
Clc1ccc(-c2nc3cnccn3c2NC2CCCC2)cc1	active: 23.1 µM
